Laboratory results reported in publication doi:10.1101/2023.03.30.534876.

Molecular target: T1, PPE51-myc expressed in M. smegmatis (pJEX55-PPE51) (M. tuberculosis) (UniProt P9WHY3)
T1 sequence: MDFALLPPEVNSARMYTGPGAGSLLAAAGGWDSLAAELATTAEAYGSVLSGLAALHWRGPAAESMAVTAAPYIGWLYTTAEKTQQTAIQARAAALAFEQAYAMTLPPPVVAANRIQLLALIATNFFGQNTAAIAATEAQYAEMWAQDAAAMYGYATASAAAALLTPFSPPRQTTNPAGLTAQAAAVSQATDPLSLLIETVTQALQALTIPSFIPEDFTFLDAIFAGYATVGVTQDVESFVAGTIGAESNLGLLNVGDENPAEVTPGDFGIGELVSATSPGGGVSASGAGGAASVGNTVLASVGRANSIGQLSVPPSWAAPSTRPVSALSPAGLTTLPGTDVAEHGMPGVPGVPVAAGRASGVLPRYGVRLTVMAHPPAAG
Assay: co-IP

PPE50-6xHis expressed in M. smegmatis (pSCW54-PPE50)
binding: binds

No constants are given. Whether binding was seen depends on the method and setting. In cells and extracts the contact can be indirect. A result given as binding can be weak or reduced; the word gives no strength. Sequences can lack the tags named with a protein.
